# Test results from PubChem BioAssay AID2685 (National Center for Advancing Translational Sciences (NCATS), 2010).
# Hit rate of the full screen: of about 320,000 compounds, about 2,100 (0.66%) were called active. Inconclusive means that the source gave no clear call. Such entries were picked first, then a sample of the others. The call rests on the fitted dose curve; in most records, active means well fitted inhibition curve with a large enough effect in the signal ratio, with a control signal flat (not every such curve was filed as active); inconclusive means small, poorly fitted or top-dose-only effect, or effect the other way, or a change in a side signal; inactive means flat fitted curve, though single readings scatter; the % refers to the signal ratio. Potencies beside an inconclusive call are fits to weak or partial responses and may not hold up.
# Test: qHTS Assay for Lipid Storage Modulators in Drosophila S3 Cells
# Settings: BODIPY lipid droplet fluorescence, 18-24 h, cells fed with added oleic acid; lipid storage change, negative = inhibition: at 46.1 µM (top of the series) unless noted
# How it was run: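 Drosophila S3 cells loaded with oleic acid (400 uM, as added) and compounds at several concentrations; lipid droplets imaged by 488-nm laser-scanning cytometry, 500–530 nm intensity and object ratio to cell channel. Percent activity normalized to 20 uM Triacsin C.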
# On the % scale 0 is the no-effect control and ±100 the full control effect; potency means the concentration at half of the fitted maximal effect.
Compound,"lipid storage change, negative = inhibition",Potency
O=C(CSc1cccc[n+]1[O-])c1ccccc1Br,inconclusive: -11.4%,
Cc1ccc(-c2cc(C(F)(F)F)n3nc(C(=O)NCCCn4ccnc4)cc3n2)cc1C,,"inconclusive: 0.517 µM [activator, partial curve]"
O=C1CC(/C=C/c2ccccn2)=Nc2ccccc2N1,inconclusive: 9.73%,
O=C(CO/N=C1\CCCc2nonc21)Nc1ccc(Br)cc1,,"inconclusive: 8.2 µM [activator, partial curve, poor fit]"
CC(C)c1nnc(NC(=O)C2CCCN2S(=O)(=O)c2ccc(Cl)cc2)s1 (configuration not stated),,"inconclusive: 5.17 µM [activator, full curve]"
COc1cccc(NC(=O)C2CCN(S(=O)(=O)c3ccc4c(c3)NC(=O)CO4)CC2)c1,,"inconclusive: 2.31 µM [activator, partial curve]"
Cc1cccc(C(=O)Nc2nnc(-c3ccncc3)o2)c1,inconclusive: -6.28%,
Cc1nc2nc(CNC(=O)OC(C)(C)C)nn2c(C)c1CCC(=O)Nc1ccc2c(c1)OCO2,,"inconclusive: 29.1 µM [falling, single point]"
O=C(Nc1cccc(F)c1)Nc1ccnn1C1CCN(C(=O)c2cscn2)CC1,inconclusive: -60.5%,
CN(C)c1ccc(C(CNC(=O)c2ccc(F)cc2)c2c[nH]c3ccccc23)cc1 (configuration not stated),inconclusive: 56.9%,
Cc1cc(C)c2sc(N(CCN(C)C)C(=O)c3ccc4ccccc4c3)nc2c1,,"inconclusive: 29.1 µM [activator, single point]"
Cc1nn(CC(=O)NCc2cc3ccccc3[nH]2)c(C)c1[N+](=O)[O-],inconclusive: 33.8% [activator],
CCc1ccc2c(COC(=O)CNS(=O)(=O)c3ccc(NC(C)=O)cc3)cc(=O)oc2c1,,"inconclusive: 18.4 µM [activator, partial curve]"
Cc1ccc(N(CC(=O)NC2CCCC2)C(=O)CNC(=O)c2cccs2)cc1F,inconclusive: 206%,
COc1cc(C)c(S(=O)(=O)NCCCn2ccnc2)cc1C,,"inconclusive: 25.9 µM [falling, single point]"
COc1ccccc1C(=O)NCCC(=O)NC(C)CCc1ccccc1 (configuration not stated),inconclusive: -30.9%,
COc1ccc(C)cc1S(=O)(=O)N(CC(=O)O)c1ccc(C)cc1,inconclusive: 20.8%,
O=C(c1cccc([N+](=O)[O-])c1)N1CCc2ccccc21,inconclusive: 9.95%,
O=C(NC1CCN(Cc2ccccc2)CC1)c1ccccc1OCc1ccccc1Cl,inconclusive: -29.3%,
CCCN(C(=O)CN1C(=O)NC2(CCCCCC2)C1=O)C1CCS(=O)(=O)C1 (configuration not stated),inconclusive: -26%,
N=c1sccn1CC(=O)Nc1ccc(S(=O)(=O)N2CCOCC2)cc1,,"inconclusive: 1.84 µM [falling, full curve]"
Oc1ccccc1N1CCN(c2ncnc3scc(-c4ccccc4)c23)CC1,,active: 0.92 µM
O=C(CN1C(=O)NC2(CCCC2)C1=O)Nc1cccc(Cl)c1,inconclusive: 155%,
O=C(NCc1ccco1)C1CCN(S(=O)(=O)c2cccc([N+](=O)[O-])c2)CC1,inconclusive: 71.1%,

Compound,"lipid storage change, negative = inhibition",Potency
COc1ccc(N(C(=O)c2snc(C(N)=O)c2N)C(C(=O)NC2CCCCC2)c2ccc(F)cc2)c(OC)c1 (configuration not stated),,active: 13 µM
CCOc1cc(N2CCOCC2)c(OCC)cc1NC(=O)c1nn(CC)c(=O)c2ccccc12,inconclusive: 17.9%,
CN1CCC(=O)N([C@H](CN=[N+]=[N-])c2ccccc2)CC1,inconclusive: 63.1%,
CN(C)S(=O)(=O)c1ccc2c(c1)c(=O)c(C(=O)N1CCN(c3ccccn3)CC1)cn2C,inconclusive: -6.47%,
COc1ccc(C2CC(C(F)(F)F)n3nc(C(=O)O)c(Br)c3N2)cc1 (configuration not stated),inconclusive: 19.8%,
Oc1ccc(Nc2nc(N3CCCC3)c3ccccc3n2)cc1,inconclusive: 4.57%,
Cc1cc(C(=O)COC(=O)c2ccc(O)cc2)c(C)n1CCc1ccc(F)cc1,inconclusive: 22.8%,
Cc1cc2nc(-c3cccnc3SCC(=O)NC(C)C)[nH]c2cc1C,inconclusive: 32.5%,
Cc1nn(C)c(C(=O)Sc2ccccc2)c1[N+](=O)[O-],,"inconclusive: 20.6 µM [falling, partial curve]"
Cc1ccc2nc(Cl)c(C3CC(c4cccs4)=NN3S(C)(=O)=O)cc2c1 (configuration not stated),inconclusive: -44%,
CN1C(=O)N(C)C2C1N(C)S(=O)(=O)N2C (configuration not stated),,"inconclusive: 2.59 µM [falling, full curve]"
O=C(c1ccco1)N1CCN(Cc2nc3cc(Cl)ccc3c(=O)[nH]2)CC1,inconclusive: 16.3%,
CCCC(=O)NC(c1ccc2c(c1)OCO2)c1cc(Cl)c2cccnc2c1O (configuration not stated),,"inconclusive: 4.11 µM [falling, single point]"
CCOc1ccc(OCC(=O)OCC(=O)NCC2CCCO2)cc1 (configuration not stated),inconclusive: 11.8%,
CCOC(=O)C1CCN(CC(=O)Nc2cc(C)nn2-c2nc3ccccc3s2)CC1,inconclusive: 8.73%,
Cc1cc(C)c(S(=O)(=O)N2CCN(C(=O)CCn3nc(C)c(C)c3C)CC2)c(C)c1,inconclusive: -40.9%,
Cc1nc(NC(=O)CSc2nnc(C3CC3)n2C)sc1C(=O)N(C)C,,"inconclusive: 29.1 µM [falling, single point]"
O=S(=O)(c1cccc2nonc12)N1CCCCC1,,"inconclusive: 29.1 µM [activator, single point]"
CCn1c(=O)n(CC)c2cc(N3CCCC3)c(NC(=O)c3cc(Br)ccc3OC)cc21,,"inconclusive: 0.103 µM [falling, full curve, poor fit]"
CCc1cc(N2CCOCC2)cc2c1[nH]c1ccccc12,,"inconclusive: 2.59 µM [activator, partial curve]"
Cc1ccc2c(c1)-c1c(ssc1=S)C(C)(C)N2C(=O)CSc1nncn1C,inconclusive: 69.1%,
CN(CCOc1ccccc1)C(=O)c1ccc(OC2CCN(C(=O)C3CC3)CC2)cc1,inconclusive: -31.2%,
COc1cccc(CN2CC(C(=O)N(C)Cc3nc4ccc(F)cc4[nH]3)CCC2=O)c1 (configuration not stated),,"inconclusive: 6.51 µM [activator, single point]"

# Random excerpt: three compounds from above
Compound,"lipid storage change, negative = inhibition",Potency
Cc1ccc(-c2cc(C(F)(F)F)n3nc(C(=O)NCCCn4ccnc4)cc3n2)cc1C,,"inconclusive: 0.517 µM [activator, partial curve]"
Oc1ccccc1N1CCN(c2ncnc3scc(-c4ccccc4)c23)CC1,,active: 0.92 µM
Cc1cc(C)c2sc(N(CCN(C)C)C(=O)c3ccc4ccccc4c3)nc2c1,,"inconclusive: 29.1 µM [activator, single point]"
